Measured values reported in US7820709B2, “N-phenylpyrazole derivatives as pesticides” (Merial Limited, priority 2004, dated 2010).
Some results were stated once for a whole list of compounds, not compound by compound.

Test system: Ctenocephalides felis (Cat flea)
Assay: METHOD A: screening method to test systemicity against Ctenocephalides felis (artificial dog test, treated bovine blood)
Format: in vivo
Details: test concentration of 5 ppm or less in bovine blood; 10 adults; assessment at 24 and 48 hours after application

SMILES | control of Ctenocephalides felis
CN(C(=O)OCC(O)CO)c1c([S+]([O-])C(F)(F)F)c(C#N)nn1-c1c(Cl)cc(C(F)(F)F)cc1Cl (centres unmarked) [Compound 13-02] | at least 90%
CN(C(=O)OCC1COC(C)(C)O1)c1c([S+]([O-])C(F)(F)F)c(C#N)nn1-c1c(Cl)cc(C(F)(F)F)cc1Cl (centres unmarked) [Compound 17-11] | at least 90%
